# Measurements published in US9090568B2, “Quinazolinediones and their use” (IMPACT Therapeutics, Inc., priority 2011, dated 2015).
# At least one compound was matched to its structure with a doubt left.
# System: SW620 xenograft
# Assay: In vivo efficacy study: potentiating antitumor activity in combination with temozolomide
# Set-up: species or system athymic mice (nude mouse)
# Conditions: SW620 xenograft mice, oral, in combination with temozolomide (50 mg/kg) once daily for 5 days
row,SMILES,suppression of tumor growth compared to the temozolomide control
1,O=C(c1cc(Cn2c(=O)[nH]c(=O)c3ccccc32)ccc1F)N1CCN(C(=O)C2CCCO2)CC1 (centres unmarked) [Example 38],Significant suppression of tumor growth
2,O=C(c1cc(Cn2c(=O)[nH]c(=O)c3ccccc32)ccc1F)N1Cc2cccnc2C1 [Example 25],Significant suppression of tumor growth
